Reference: paper PMC11100904, “How short peptides can disassemble ultra-stable tau fibrils extracted from Alzheimer’s disease brain by a strain-relief mechanism” (Research Square, 2024)
No constants are given. Whether binding was seen depends on the method and setting. Some entries that bind do so weakly or less than the wild type.

By UniProt entry, the sequences of proteins in these tests, tags left out. Where a name states a change or a piece, a line headed by the entry shows the natural chain unless it says otherwise. Residues count along the entry.
UniProt P10636: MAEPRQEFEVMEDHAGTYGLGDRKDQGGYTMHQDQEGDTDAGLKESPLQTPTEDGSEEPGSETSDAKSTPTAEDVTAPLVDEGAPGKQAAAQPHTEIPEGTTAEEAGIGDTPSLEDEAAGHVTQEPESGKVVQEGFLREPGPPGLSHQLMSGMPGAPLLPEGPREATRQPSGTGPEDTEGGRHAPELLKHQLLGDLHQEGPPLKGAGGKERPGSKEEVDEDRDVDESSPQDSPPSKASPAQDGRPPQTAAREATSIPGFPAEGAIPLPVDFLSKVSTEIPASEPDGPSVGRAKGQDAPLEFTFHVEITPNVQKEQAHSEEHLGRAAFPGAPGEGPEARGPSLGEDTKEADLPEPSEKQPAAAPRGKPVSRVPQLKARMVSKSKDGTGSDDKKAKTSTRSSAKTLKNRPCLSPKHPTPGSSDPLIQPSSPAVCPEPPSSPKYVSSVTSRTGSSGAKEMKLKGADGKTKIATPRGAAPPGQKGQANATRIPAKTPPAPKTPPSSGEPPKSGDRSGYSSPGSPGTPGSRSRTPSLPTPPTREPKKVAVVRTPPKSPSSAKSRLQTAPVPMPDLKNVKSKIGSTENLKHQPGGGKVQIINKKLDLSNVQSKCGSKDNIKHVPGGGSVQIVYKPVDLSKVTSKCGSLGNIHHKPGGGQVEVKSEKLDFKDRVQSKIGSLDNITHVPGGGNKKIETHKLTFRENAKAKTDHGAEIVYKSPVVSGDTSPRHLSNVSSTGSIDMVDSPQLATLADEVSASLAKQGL
15N,13C-labeled tau K18+ (residues Gln244-Glu380 of 4R tau): residues 561-697 of P10636

How the values were obtained:
[1] = molecular target: D-TLKIVWI; assay: X-ray fibre diffraction; 10 mM peptide in deionized water, room temperature, quiescent, three days; fibrils aligned between glass rods, dried, 100 K; both purified
[2] = molecular target: D-TLKIVWI; assay: cryo-EM structure; AD-tau fibrils in 20 mM Tris-HCl pH 7.4, 100 mM NaCl pre-incubated at 37 °C with 100 μM D-TLKIVWX (X = I, S, R) for 24 hours (estimated 100:1 peptide to tau); control tau fibrils of the same donor without peptide; both purified
[3] = molecular target: tau fibrils extracted from AD brains (AD-tau), paired helical filament (PHF) (human (endogenous in AD patient brain)) (UniProt P10636); assay: as above
[4] = molecular target: D-TLKIVWI; assay: cryo-EM structure; fibrils of the D-peptide alone: 4 mM D-TLKIVWI shaken in deionized water at room temperature for three days; 10 mM D-TLKIVWS/R in deionized water undisturbed for three days at room temperature (D-TLKIVWR at pH 7.0); both purified
[5] = molecular target: 15N,13C-labeled tau K18+ (residues Gln244-Glu380 of 4R tau) (UniProt P10636); assay: NMR titration; 1H-15N HSQC, 0.1 mM 15N,13C-labeled tau K18+ in 100 mM KCl, 20 mM NaH2PO4, 1 mM TCEP, 5%/95% D2O/H2O, pH 7.0, without or with 1 mM peptide (10-fold molar excess), 25 °C; chemical shift perturbation; one concentration, changes seen over time (2.5 months at 4 °C for D-TLKIVWI); both purified
[6] = molecular target: D-TLKIVWS; assay: X-ray fibre diffraction; 10 mM peptide in deionized water, room temperature, quiescent, three days; fibrils aligned between glass rods, dried, 100 K; both purified
[7] = molecular target: D-TLKIVWS; assay: cryo-EM structure; AD-tau fibrils in 20 mM Tris-HCl pH 7.4, 100 mM NaCl pre-incubated at 37 °C with 100 μM D-TLKIVWX (X = I, S, R) for 24 hours (estimated 100:1 peptide to tau); control tau fibrils of the same donor without peptide; both purified
[8] = molecular target: D-TLKIVWS; assay: cryo-EM structure; fibrils of the D-peptide alone: 4 mM D-TLKIVWI shaken in deionized water at room temperature for three days; 10 mM D-TLKIVWS/R in deionized water undisturbed for three days at room temperature (D-TLKIVWR at pH 7.0); both purified
[9] = molecular target: D-TLKIVWR; assay: X-ray fibre diffraction; 10 mM peptide in deionized water, room temperature, quiescent, three days; fibrils aligned between glass rods, dried, 100 K; both purified
[10] = molecular target: D-TLKIVWR; assay: cryo-EM structure; AD-tau fibrils in 20 mM Tris-HCl pH 7.4, 100 mM NaCl pre-incubated at 37 °C with 100 μM D-TLKIVWX (X = I, S, R) for 24 hours (estimated 100:1 peptide to tau); control tau fibrils of the same donor without peptide; both purified
[11] = molecular target: D-TLKIVWR; assay: cryo-EM structure; fibrils of the D-peptide alone: 4 mM D-TLKIVWI shaken in deionized water at room temperature for three days; 10 mM D-TLKIVWS/R in deionized water undisturbed for three days at room temperature (D-TLKIVWR at pH 7.0); both purified

Measured: binding

B1: D-TLKIVWI (peptide)
peptide: TLKIVWI
modifications: all residues are D-amino acids (D-peptide)
binds: [1] | [2] | [3] | [4] | [5]

B2: D-TLKIVWS (peptide)
peptide: TLKIVWS
modifications: all residues are D-amino acids (D-peptide)
binds: [6] | [7] | [3] | [8] | [5]

B3: D-TLKIVWR (peptide)
peptide: TLKIVWR
modifications: all residues are D-amino acids (D-peptide)
binds: [9] | [10] | [3] | [11]
